For assay [1], the target named is T1, FIH (Homo sapiens, UniProt Q9NWT6). The assay is described as follows: Competition assay in a single reaction vessel, FIH-catalyzed hydroxylation (SPE-MS). The following applies: Fig 2b, 20 μM 2OG. Type of assay: biochemical. Here is the method: Mean of three independent runs (n = 3; mean ± SD). […] Cosubstrates: a 20 μM 2OG; b 20 μM 2OG; c 20 μM 1; d 20 μM 12; e 20 μM 12 and 100 μM 2OG; f 100 μM 14. Source data are provided as a Source Data file.
Mean of three independent runs (n = 3; mean ± SD). […] Source data are provided as a Source Data file.
Peptide turnover was monitored by SPE-MS using the same instrument configuration (with the exception that the peptides were eluted from the SPE cartridge with 0.1%v/v aqueous formic acid in 80/20 v/v acetonitrile/water) as described above.
FIH and AspH-catalyzed peptide hydroxylations were analyzed simultaneously using SPE-MS as described in the
Methods section; competition experiments were performed in the same reaction vessel using equimolar 2OG
oxygenase and substrate concentrations. […]
Source data are provided as a Source Data file.
FIH and AspH-catalyzed peptide hydroxylations were analyzed simultaneously using SPE-
MS as described in the Methods section; competition experiments were performed in the same reaction vessel
using equimolar 2OG oxygenase and substrate concentrations. […]
2OG, 100 μM 14. Source data are provided as a Source Data file.

Amino acid sequences for entries named in this document (tags omitted). A change or cut given only in a name is not applied to a line headed by its entry.
UniProt Q9NWT6: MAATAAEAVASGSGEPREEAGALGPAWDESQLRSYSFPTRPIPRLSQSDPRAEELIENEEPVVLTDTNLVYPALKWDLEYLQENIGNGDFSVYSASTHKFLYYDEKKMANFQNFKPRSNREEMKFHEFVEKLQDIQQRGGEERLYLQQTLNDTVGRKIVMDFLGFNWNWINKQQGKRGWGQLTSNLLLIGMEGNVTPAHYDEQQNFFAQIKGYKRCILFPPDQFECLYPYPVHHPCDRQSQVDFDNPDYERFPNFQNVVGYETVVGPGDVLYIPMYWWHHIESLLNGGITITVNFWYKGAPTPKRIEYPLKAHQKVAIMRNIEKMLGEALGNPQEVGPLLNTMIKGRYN

Assay [2] concerns the target T1, FIH. The assay is described as follows: FIH steady-state kinetic parameters (SPE-MS, initial hydroxylation rates). The class given is biochemical. Here is the method: Final 2OG/2OG derivative concentrations are given in Supplementary Figs. 5 and 6. Reactions were monitored with a rate of ~1 sample/40 s using the same SPE-MS configuration as described above. Data were analyzed as described above and the slopes of the initial reaction rates (Supplementary Figs. 5 and 6) fitted to a Michaelis–Menten plot using non-linear regression (GraphPad Prism 5). […]
determine kinetic parameters for 2OG derivatives (continues on the following page). Maximum velocities (vapp ) and Michaelis constants (Kapp) of FIH were determined in independent triplicates for 2OG and the 2OG […]
SPE-MS as described in the Methods section. […]
acid (LAA), and 20 μM ammonium iron(II) sulfate hexahydrate (FAS, (NH4)2Fe(SO4)2·6H2O) in buffer (50 mM […]
Tris, 50 mM NaCl, pH 7.5, 20° C). […]
data are provided as a Source Data file. […]
concentrations of 2OG; (b) hydroxylation rates used to determine kinetic parameters of FIH for 2OG; (c) time […]
3-methyl-2OG (1); (d) hydroxylation rates used to determine kinetic parameters of FIH for 1; (e) time course of […]
2OG (12); (f) hydroxylation rates used to determine kinetic parameters of FIH for 12; (g) time course of the FIH- […]
(h) hydroxylation rates used to determine kinetic parameters of FIH for 14; (i) time course of the FIH-catalyzed […]
(carboxycarbonyl)cyclopentane-1-carboxylic acid (22); (j) hydroxylation rates used to determine kinetic parameters of FIH for 22.
Supplementary Figure 6. Hydroxylation rates of FIH-catalyzed CA1-20 hydroxylations used to determine kinetic parameters for 2OG derivatives (continues on the following page). Maximum velocities (vapp ) and […]
ammonium iron(II) sulfate hexahydrate (FAS, (NH4)2Fe(SO4)2·6H2O) in buffer (50 mM Tris, 50 mM NaCl, pH […]
Source data are provided as a Source […]
of 2OG; (b) hydroxylation rates used to determine kinetic parameters of FIH for 2OG; (c) time course of the FIH-catalyzed hydroxylation reaction of the CA1-20 peptide for the shown concentrations of 3-methyl-2OG (1); (d) hydroxylation rates used to determine kinetic parameters of FIH for 1; (e) time course of the FIH -catalyzed hydroxylation reaction of the CA 1-20 peptide for the shown concentrations of 4 -methyl-2OG (12); (f) hydroxylation rates used to determine kinetic parameters of FIH for 12; (g) time course of the FIH-catalyzed hydroxylation reaction of the CA1-20 peptide for the shown concentrations of 4-ethyl-2OG (14); (h) hydroxylation rates used to determine kinetic parameters of FIH for 14; (i) time course of the FIH-catalyzed hydroxylation reaction of the CA1-20 peptide for the shown concentrations of 3-(carboxycarbonyl)cyclopentane-1-carboxylic acid (22); (j) hydroxylation rates used to determine kinetic parameters of FIH for 22.

Values joined by “and” are separate entries in the source; they are usually repeats but may differ in a detail not shown here. Equal entries are not always repeated. Further values from the same series stand in other lists.

For `O=C(O)CCC(=O)C(=O)O` [2OG, 2-Oxoglutarate], the “substrate hydroxylation (% conversion)” value is 11.5964 and 13.5396 and 14.72 at FIH [1] (0 min); 24.7804 and 23.3024 and 25.6576 at FIH [1] (0.2395 min); 35.8187 and 32.4008 and 35.6628 at FIH [1] (0.479333 min); 44.676 and 40.8832 and 43.8025 on FIH [1] (0.720167 min); 52.6778 and 47.8294 and 50.9098 at FIH [1] (0.958667 min); 56.9565 at FIH [1] (1.19933 min). In addition, the “substrate hydroxylation (% conversion)” value on FIH [1] (1.4395 min) is 64.466 and 59.4055 and 62.1371; on FIH [1] (1.6805 min) it was 68.74 and 63.8072 and 66.578; on FIH [1] (1.9205 min), 72.4813 and 67.7693 and 70.3323; on FIH [1] (2.1615 min), 76.0778 and 71.4186 and 73.3987; at FIH [1] (2.40217 min), 79.1496 and 73.9261 and 76.0106; on FIH [1] (2.64367 min), 81.3261 and 76.569 and 78.5159. For the same molecule, the “substrate hydroxylation (% conversion)” value on FIH [1] (2.88417 min) is 84.0687 and 78.7132 and 80.7199; at FIH [1] (3.1255 min), 85.6054 and 80.8971 and 82.7315; at FIH [1] (3.3665 min) it was 87.1073 and 82.6984 and 84.48; on FIH [1] (3.60917 min), 88.317 and 83.5071 and 85.4213; at FIH [1] (3.84967 min), 89.8726 and 80.8464 and 84.2899.
Regarding `O=C(O)C(=O)C1CCC(C(=O)O)C1` (stereo not drawn) [compound 22, 3-(carboxycarbonyl)cyclopentane-1-carboxylic acid], the “SPE-MS determined concentration of hydroxylated HIF-1a peptide” value (from here on “SPE-MS determined concentration”) at FIH [2] (4 uM compound 22 as cosubstrate, time 4.19733 min, replicates 1-3) is 0.0687 µM and 0.08548 µM and 0.04585 µM; on FIH [2] (4 uM compound 22 as cosubstrate, time 4.89717 min, replicates 1-3), 0.06536 µM and 0.08976 µM and 0.05821 µM; at FIH [2] (4 uM compound 22 as cosubstrate, time 5.5955 min, replicates 1-3), 0.06524 µM and 0.0905 µM and 0.04999 µM; at FIH [2] (4 uM compound 22 as cosubstrate, time 6.29533 min, replicates 1-3) it was 0.07092 µM and 0.0912 µM and 0.06779 µM; on FIH [2] (8 uM compound 22 as cosubstrate, time 4.19733 min, replicates 1-3), 0.08132 µM and 0.1065 µM; at FIH [2] (8 uM compound 22 as cosubstrate, time 4.89717 min, replicates 1-3), 0.08477 µM and 0.08938 µM and 0.1172 µM. Moreover, the “SPE-MS determined concentration” value at FIH [2] (8 uM compound 22 as cosubstrate, time 5.5955 min, replicates 1-3) is 0.09486 µM and 0.09401 µM and 0.1257 µM; at FIH [2] (8 uM compound 22 as cosubstrate, time 6.29533 min, replicates 1-3), 0.09139 µM and 0.0929 µM and 0.1229 µM; at FIH [2] (16 uM compound 22 as cosubstrate, time 4.19733 min, replicates 1-3), 0.1145 µM and 0.1416 µM and 0.1182 µM; at FIH [2] (16 uM compound 22 as cosubstrate, time 4.89717 min, replicates 1-3), 0.1267 µM and 0.1507 µM and 0.1165 µM; on FIH [2] (16 uM compound 22 as cosubstrate, time 5.5955 min, replicates 1-3), 0.1292 µM and 0.1609 µM and 0.1309 µM; at FIH [2] (16 uM compound 22 as cosubstrate, time 6.29533 min, replicates 1-3) it was 0.1357 µM and 0.1671 µM and 0.1126 µM. For the same molecule, the “SPE-MS determined concentration” value on FIH [2] (32 uM compound 22 as cosubstrate, time 4.19733 min, replicates 1-3) was 0.1616 µM and 0.1896 µM and 0.1548 µM; on FIH [2] (32 uM compound 22 as cosubstrate, time 4.89717 min, replicates 1-3) it was 0.1701 µM and 0.1912 µM and 0.1711 µM; at FIH [2] (32 uM compound 22 as cosubstrate, time 5.5955 min, replicates 1-3), 0.1895 µM and 0.2188 µM and 0.1879 µM; on FIH [2] (32 uM compound 22 as cosubstrate, time 6.29533 min, replicates 1-3) it was 0.1873 µM and 0.219 µM and 0.1996 µM; on FIH [2] (64 uM compound 22 as cosubstrate, time 4.19733 min, replicates 1-3), 0.1876 µM and 0.2212 µM and 0.2004 µM; at FIH [2] (64 uM compound 22 as cosubstrate, time 4.89717 min, replicates 1-3), 0.2003 µM and 0.2402 µM and 0.2163 µM. The “SPE-MS determined concentration” value on FIH [2] (64 uM compound 22 as cosubstrate, time 5.5955 min, replicates 1-3) was 0.2245 µM and 0.264 µM and 0.2398 µM; on FIH [2] (64 uM compound 22 as cosubstrate, time 6.29533 min, replicates 1-3), 0.2275 µM and 0.267 µM and 0.2434 µM; on FIH [2] (128 uM compound 22 as cosubstrate, time 4.19733 min, replicates 1-3) it was 0.221 µM and 0.2386 µM and 0.2344 µM; on FIH [2] (128 uM compound 22 as cosubstrate, time 4.89717 min, replicates 1-3), 0.2347 µM and 0.2601 µM and 0.2594 µM; on FIH [2] (128 uM compound 22 as cosubstrate, time 5.5955 min, replicates 1-3), 0.2462 µM and 0.2725 µM and 0.2749 µM; at FIH [2] (128 uM compound 22 as cosubstrate, time 6.29533 min, replicates 1-3) it was 0.2654 µM and 0.2853 µM and 0.2954 µM. In addition, the “SPE-MS determined concentration” value at FIH [2] (256 uM compound 22 as cosubstrate, time 4.19733 min, replicates 2-3 (replicate 1 empty)) was 0.263 µM and 0.2519 µM; on FIH [2] (256 uM compound 22 as cosubstrate, time 4.89717 min, replicates 2-3 (replicate 1 empty)), 0.2861 µM and 0.277 µM; at FIH [2] (256 uM compound 22 as cosubstrate, time 5.5955 min, replicates 2-3 (replicate 1 empty)), 0.3111 µM and 0.298 µM; on FIH [2] (256 uM compound 22 as cosubstrate, time 6.29533 min, replicates 2-3 (replicate 1 empty)), 0.3064 µM and 0.3077 µM.

The values are drawn from article PMC8580996, “2-Oxoglutarate derivatives can selectively enhance or inhibit the activity of human oxygenases” (Nature Communications, 2021).
